Laboratory results reported in paper PMC4895691, “Suppressor of IKKɛ is an essential negative regulator of pathological cardiac hypertrophy” (Nature Communications, 2016).

Biological target: T1, Tbk1, endogenous in neonatal rat cardiomyocytes (rat (endogenous in neonatal rat cardiomyocytes)) (UniProt D4A7D3)
T1 sequence: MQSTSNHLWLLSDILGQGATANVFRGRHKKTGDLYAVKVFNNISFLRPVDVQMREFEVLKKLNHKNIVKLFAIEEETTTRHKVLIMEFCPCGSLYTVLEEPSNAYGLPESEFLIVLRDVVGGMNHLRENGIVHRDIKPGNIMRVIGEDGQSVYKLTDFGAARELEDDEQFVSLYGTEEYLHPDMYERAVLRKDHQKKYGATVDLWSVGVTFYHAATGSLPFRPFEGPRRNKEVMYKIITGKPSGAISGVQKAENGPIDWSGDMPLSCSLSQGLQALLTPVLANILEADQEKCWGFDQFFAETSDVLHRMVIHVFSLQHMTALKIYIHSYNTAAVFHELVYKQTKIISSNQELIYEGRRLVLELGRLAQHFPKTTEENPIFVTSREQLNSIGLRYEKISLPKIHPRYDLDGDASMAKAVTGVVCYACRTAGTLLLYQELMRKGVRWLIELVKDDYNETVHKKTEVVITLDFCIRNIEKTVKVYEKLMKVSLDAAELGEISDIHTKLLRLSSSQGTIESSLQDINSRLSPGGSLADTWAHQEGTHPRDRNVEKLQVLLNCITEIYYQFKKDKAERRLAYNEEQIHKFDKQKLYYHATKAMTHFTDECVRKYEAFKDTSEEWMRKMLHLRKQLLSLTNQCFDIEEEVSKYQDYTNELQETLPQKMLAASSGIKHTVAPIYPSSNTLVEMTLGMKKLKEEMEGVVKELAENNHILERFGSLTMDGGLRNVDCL
Test: co-IP; cardiomyocytes with or without upregulation of Sike, with or without Ang II challenge; Tbk1 with Traf3

binding: binds
Substance: Traf3 in cardiomyocytes (rat (in neonatal rat cardiomyocytes))

No constants are given. Whether binding was seen depends on the method and setting. Binding seen in cells or lysates may run through a third protein. A result given as binding can be weak or reduced; the word gives no strength.
